Columns and labels:
[1] = DPPH radical scavenging assay; details: more potent than standard Ascorbic acid
Description: The antioxidant potential of spirooxindoles 6a–p against DPPH˙ was evaluated as per previously described procedures by Brand-Williams et al.[32]. DPPH solution was prepared by dissolving 0.024 g DPPH in methanol (100 mL). In 96-well plates, × μL sample and 200-x μL DPPH solution were added. The plate was incubated for 30 min at room temperature in the dark, and finally, absorbance was recorded at 517 nm wavelength. Ascorbic acid was used as positive control. The percent radical scavenging potential was calculated for each compound via the following equation: Scavenging effect (%) = {(Absorbance of control − Absorbance of sample)/Absorbance of control} × 100.
The DPPH (2,2-diphenyl-1-picrylhydrazyl) radical scavenging activity assay is considered as one of the most common and simple methods for measuring the antioxidant ability to trap free radicals. […] Substances that have the potential to act as electron donors result in reduction of this DPPH radical to the corresponding DPPH2 disclosing their antioxidant potential. The principle of the method relies upon measuring the absorbance of the odd electrons of DPPH at 517 nm. The absorbance decreases, in the presence of free radical scavengers, proportional to the decrease of the DPPH radical concentration.

[2] = tested on: non-tumorigenic human breast MCF-10A cell line; test: Cytotoxicity towards non-tumorigenic MCF-10A cells; format: cell-based; details: ratio of IC50 MCF-10A / IC50 HepG2

| SMILES | DPPH scavenging potency relative to Ascorbic acid [1] [fold] | Tumour S. I. (MCF-10A/HepG2) [2] |
| --- | --- | --- |
| N#CC1=C(c2ccccc2)Nc2c(c(-c3cccs3)nn2-c2ccccc2)C12C(=O)Nc1ccccc12 (centres unmarked) [Compound 6a] | 1.6 | 13.7 |
| Cc1ccc(C2=C(C#N)C3(C(=O)Nc4ccccc43)c3c(-c4cccs4)nn(-c4ccccc4)c3N2)cc1 (centres unmarked) [Compound 6b] |  | 5.8 |
| COc1ccc(C2=C(C#N)C3(C(=O)Nc4ccccc43)c3c(-c4cccs4)nn(-c4ccccc4)c3N2)cc1 (centres unmarked) [Compound 6c] |  | 7.4 |
| N#CC1=C(c2ccccc2)Nc2c(c(-c3cccs3)nn2-c2ccccc2)C12C(=O)Nc1ccc(Cl)cc12 (centres unmarked) [Compound 6e] |  | 8.3 |
| Cc1ccc(C2=C(C#N)C3(C(=O)Nc4ccc(Cl)cc43)c3c(-c4cccs4)nn(-c4ccccc4)c3N2)cc1 (centres unmarked) [Compound 6f] |  | 4.9 |
| N#CC1=C(c2ccccc2)Nc2c(c(-c3cccs3)nn2-c2ccccc2)C12C(=O)Nc1ccc(Br)cc12 (centres unmarked) [Compound 6i] |  | 12.2 |
| Cc1ccc(C2=C(C#N)C3(C(=O)Nc4ccc(Br)cc43)c3c(-c4cccs4)nn(-c4ccccc4)c3N2)cc1 (centres unmarked) [Compound 6j] |  | 14.8 |
| COc1ccc(C2=C(C#N)C3(C(=O)Nc4ccc(Br)cc43)c3c(-c4cccs4)nn(-c4ccccc4)c3N2)cc1 (centres unmarked) [Compound 6k] |  | 10.3 |
| COc1ccc2c(c1)C1(C(=O)N2)C(C#N)=C(c2ccccc2)Nc2c1c(-c1cccs1)nn2-c1ccccc1 (centres unmarked) [Compound 6m] | 1.6 | 6.1 |

— publication PMC7144320, “Antitumor properties of certain spirooxindoles towards hepatocellular carcinoma endowed with antioxidant activity” (Journal of Enzyme Inhibition and Medicinal Chemistry, 2020)
